The campaign covered roughly 390,000 compounds. About 610 (0.16%) were called active. Inconclusive means that the source gave no clear call. Such entries were picked first, then a sample of the others. Calls follow the shape of the dose curve; as a rule, active = well fitted inhibition curve with a large enough effect; inconclusive = small, poorly fitted or top-dose-only effect, or effect the other way, or another doubt; inactive = no such curve, though single readings can be large or run the other way. Where the call is inconclusive, the potency comes from a doubtful curve fit.
Test: Nrf2 qHTS screen for inhibitors: counterscreen for cytotoxicity
Details: A549 ARE-Fluc cells, CellTiter-Fluor viability, 18-24 h; series mostly up to 46 µM
In short: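 Cytotoxicity counterscreen: CellTiter-Fluor fluorescence was measured in A549 ARE_Fluc cells after 18-24 h of compound exposure in a concentration series. The subsequent BugLite luminescent read reports ARE-luciferase activity.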
Potency is read from the fitted curve at half-maximal effect.

| SMILES | Potency |
| --- | --- |
| Cc1cc(S(=O)(=O)NCc2ccccc2)ccc1OCC(=O)Nc1cccc([N+](=O)[O-])c1 | inconclusive: 29.1 µM [falling, partial curve, poor fit] |
| COc1ccc(NC(=O)CCSc2ccc(C)cc2)cc1 | inconclusive: 3.66 µM [activator, partial curve, poor fit] |
| CC(=O)c1cc(N2CCC(C(=O)O)CC2)ccc1[N+](=O)[O-] | inconclusive: 20.6 µM [falling, single point] |
| Cc1cc(C)c(OCC(=O)Nc2cccc(-c3nc4ncccc4o3)c2)c(Br)c1 | inactive |
| CC(C)NS(=O)(=O)c1ccc(OCC(=O)N2CCN(c3ccccc3F)CC2)cc1 | inactive |
| Cc1ccc(-c2cc(C(=O)N(C)Cc3cnn(C)c3C)c3cc(Br)ccc3n2)cc1 | inconclusive: 29.1 µM [falling, single point] |
| O=C(CCC1N=C2c3ccccc3N=C(SCc3cccc(Cl)c3)N2C1=O)NCc1cccs1 (stereo not drawn) | inconclusive: 16.4 µM [falling, partial curve, poor fit] |
| CCCOc1ccc(C(=O)NNC(=S)NC(=O)CC)cc1 | inconclusive: 6.51 µM [falling, partial curve, poor fit] |
| CCOCCCn1c(=NC(C)=O)c(C#N)cc2c(=O)n3cccc(C)c3nc21 | inconclusive: 13 µM [activator, partial curve] |
| CC(C)(C)C(=O)NC(=S)Nc1ccc(C(F)(F)F)cc1 | inconclusive: 25.9 µM [activator, partial curve] |
| Cc1ccc(NC(=O)Cn2c(=O)nc(-c3ccccc3F)c3cc(Cl)ccc32)c(Br)c1 | inconclusive: 14.6 µM [falling, partial curve] |
| C[C@@H]1CN([C@H](C)CO)C(=O)c2cc(NC(=O)Nc3ccc(C(F)(F)F)cc3)ccc2O[C@H]1CN(C)S(=O)(=O)c1ccc(Cl)cc1 | inactive |
| CCCCCNCC(=O)Nc1cccc(C(=O)Nc2cccc(C(F)(F)F)c2)c1 | inconclusive: 32.6 µM [falling, partial curve, poor fit] |
| COC(=O)C(C)N1C(=O)S/C(=C/c2cc(C)n(C(C)C)c2C)C1=O (stereo not drawn) | inconclusive: 16.4 µM [falling, partial curve] |
| O=C(Nc1cc(S(=O)(=O)Nc2ccc(Cl)cc2)ccc1N1CCCCC1)c1ccc(F)cc1Cl | inconclusive: 29.1 µM [falling, single point] |
| CC(=O)/C(=N/Nc1ccccc1)N1CCOCC1 | inconclusive: 25.9 µM [falling, partial curve, poor fit] |
| COc1c(Cl)cc(Cl)cc1C(=O)Nc1ccc(NC(=O)c2cccs2)cc1 | inactive |
| Cc1cc(C)c(NC(=O)CN(C)S(=O)(=O)c2ccc3c(c2)n(C)c(=O)c(=O)n3C)c(C)c1 | inactive |
| O=C(NCc1ccc(F)cc1)c1cccc(N2CCCS2(=O)=O)c1 | inconclusive: 29.1 µM [activator, partial curve, poor fit] |
| Cc1ccc2nc(/C(C#N)=C/c3ccc(-c4ccc(F)cc4F)o3)[nH]c2c1 | inconclusive: 23.1 µM [falling, partial curve, poor fit] |
| O=C(CCNC(=O)C1CCN(S(=O)(=O)c2ccc(F)cc2)CC1)NCc1ccncc1 | inconclusive: 29.1 µM [activator, single point] |

| SMILES | Potency |
| --- | --- |
| CSc1ccc(CN(C)C(=O)C2CCN(C(=O)Nc3ccccc3)CC2)cc1 | inconclusive: 29.1 µM [falling, single point] |
| NC(=S)NN=C1c2cc(OCCN3CCOCC3)ccc2-c2ccc(OCCN3CCOCC3)cc21 | active: 16.4 µM |
| COc1ccc(NC(=S)N(Cc2ccc(N(C)C)cc2)Cc2ccco2)cc1 | inconclusive: 29.1 µM [falling, single point] |
| CCN(Cc1ccccc1)S(=O)(=O)c1ccc(S(=O)(=O)N(Cc2cccc(OC)c2)CC2CCCO2)cc1 (stereo not drawn) | inconclusive: 8.2 µM [activator, partial curve] |
| Cn1c(SCC(=O)N/N=C/c2ccc([N+](=O)[O-])s2)nnc1-c1ccccc1 | inconclusive: 20.6 µM [falling, single point] |
| Cc1ccc(Cc2c(C)nc3nc(SCC(=O)NCc4ccco4)nn3c2C)cc1 | inconclusive: 6.51 µM [falling, partial curve, poor fit] |
| COc1ccc(CCN(C)Cc2ccc(OCc3ccccc3)c(OC)c2)cc1OC | inconclusive: 29.1 µM [falling, single point] |
| O=C1C=C(c2ccccc2)C(c2ccccc2)C1 (stereo not drawn) | inconclusive: 32.6 µM [falling, partial curve, poor fit] |
| O=C(Cc1cccs1)Nc1ccc(F)c(S(=O)(=O)N2CCOCC2)c1 | inactive |
| CCC1C/C(=C\c2cc(OC)c(OC)cc2OC)C(=O)/C(=C/c2cc(OC)c(OC)cc2OC)C1 (stereo not drawn) | inconclusive: 20.6 µM [falling, partial curve, poor fit] |
| COc1ccc(CN(C(=O)CSc2nnc(-c3c[nH]c4ccccc34)o2)c2ccc(F)cc2)cc1OC | inconclusive: 18.4 µM [falling, single point] |
| COc1ccc(NC(=S)NC(NC(=O)c2ccccc2Cl)C(Cl)(Cl)Cl)c([N+](=O)[O-])c1 (stereo not drawn) | inconclusive: 29.1 µM [falling, single point] |
| COc1ccc(C)cc1NC(=O)NNC(=O)C(C)Oc1ccc(F)cc1Cl (stereo not drawn) | inactive |
| COc1cc(CNC2CCCC2)cc(Cl)c1OCc1ccccc1Cl | inconclusive: 25.9 µM [falling, single point] |
| CN(C)S(=O)(=O)c1cccc(NC(=O)COC(=O)C2(c3ccccc3F)CCCC2)c1 | inconclusive: 18.4 µM [falling, partial curve, poor fit] |
| CCN1c2ccccc2N(C)C1(C)c1ccccc1 (stereo not drawn) | inconclusive: 18.4 µM [falling, single point] |
| Cc1csc2nc(CCNS(=O)(=O)c3ccccc3)cn12 | inactive |
| CCOC(=O)C1(Cc2ccccc2)CCN(Cc2cccn2-c2cccnc2)CC1 | inconclusive: 23.1 µM [activator, partial curve, poor fit] |
| COc1ccc2ccccc2c1C1CC(=O)N2CN(C3CCCCC3)CSC2=C1C#N (stereo not drawn) | inactive |
| CCNC1CCC(Nc2ccnc3cc(Cl)ccc23)CC1 (stereo not drawn) | inconclusive: 18.4 µM [falling, partial curve, poor fit] |
| O=[N+]([O-])c1ccccc1N=Nc1ccc(O)cc1 | inconclusive: 32.6 µM [activator, partial curve, poor fit] |

4 records drawn at random from the list so far:

| SMILES | Potency |
| --- | --- |
| Cc1csc2nc(CCNS(=O)(=O)c3ccccc3)cn12 | inactive |
| CCN1c2ccccc2N(C)C1(C)c1ccccc1 (stereo not drawn) | inconclusive: 18.4 µM [falling, single point] |
| COc1ccc(CN(C(=O)CSc2nnc(-c3c[nH]c4ccccc34)o2)c2ccc(F)cc2)cc1OC | inconclusive: 18.4 µM [falling, single point] |
| O=[N+]([O-])c1ccccc1N=Nc1ccc(O)cc1 | inconclusive: 32.6 µM [activator, partial curve, poor fit] |

The results go on:

| SMILES | Potency |
| --- | --- |
| Cc1ccc(C(=O)c2c3ccc([N+](=O)[O-])cc3[n+]([O-])n2CCCN)cc1 | inconclusive: 23.1 µM [falling, partial curve, poor fit] |
| Cc1ccc(CN(Cc2ccco2)C(=O)COc2ccc(Cl)cc2Cl)cc1 | inconclusive: 9.2 µM [activator, partial curve, poor fit] |
| Cc1ccc(-c2cc(C(F)(F)F)nc(SCC(=O)c3cccc([N+](=O)[O-])c3)n2)cc1 | inconclusive: 29.1 µM [falling, single point] |
| CC1CCN(S(=O)(=O)c2cc([N+](=O)[O-])ccc2Cl)CC1 | inconclusive: 16.4 µM [activator, partial curve, poor fit] |
| Cc1cc2ncn(S(=O)(=O)c3ccc(F)cc3)c2cc1C | inconclusive: 0.82 µM [activator, full curve, poor fit] |
| O=C(Cn1nc(-c2ccccc2Cl)ccc1=O)Nc1ccc(Br)cc1 | inactive |
| CC(=O)c1ccc2c(c1)C1C=CCC1C(c1ccncc1)N2 (stereo not drawn) | inactive |
| COC(=O)CSC1=C(C#N)C(c2cccc(F)c2)CC(=O)N1 (stereo not drawn) | inconclusive: 29.1 µM [falling, partial curve, poor fit] |
| CCOc1ccc(Cc2n[nH]c(=S)n2Cc2ccccc2)cc1 | inconclusive: 25.9 µM [activator, partial curve] |
| NC(=S)N=Nc1c(O)n(Cc2ccc(F)cc2)c2ccccc12 | inactive |
| Cc1ccc2nc(-c3sc4nc(C)cc(C)c4c3N)[nH]c2c1 | inconclusive: 13 µM [activator, partial curve] |
| CCOc1ccc2[nH]c(=O)c(CN(Cc3cccs3)Cc3nnnn3C(C)(C)C)cc2c1 | inconclusive: 25.9 µM [falling, single point] |
| Oc1c(N=NC(=S)Nc2ccccc2F)c2ccccc2n1Cc1ccccc1Cl | inconclusive: 16.4 µM [falling, partial curve, poor fit] |
| COc1cccc(C2c3c(ncn(CCCN4CCOCC4)c3=N)Oc3ccc4ccccc4c32)c1 (stereo not drawn) | active: 14.6 µM |
| Cc1ccc(S(=O)(=O)Nc2ccc(NC(=O)c3c(F)c(F)c(F)c(F)c3F)cc2)cc1 | inactive |
| Cc1ccc(NC(=O)Nc2ccc3nc(N4CCN(C)CC4)cc(C)c3c2)cc1C | inconclusive: 16.4 µM [falling, single point] |
| COc1cc(NS(=O)(=O)c2ccc(NC(=O)c3ccc(C(C)=O)cc3)cc2)nc(OC)n1 | inactive |
| Cc1nc2cccnc2n1C1CCN(S(=O)(=O)c2ccc(C(C)C)cc2)CC1 | inconclusive: 20.6 µM [falling, partial curve] |
| Cc1noc(C)c1C(=O)OCC(=O)Nc1ncc(Cl)c(C)c1Cl | inactive |
| CC(SCc1ccccc1)C(=O)Nc1ccccc1-c1ccccc1 (stereo not drawn) | inconclusive: 25.9 µM [activator, partial curve, poor fit] |
| O=C(NCc1ccc(Cl)cc1)C1CCN(S(=O)(=O)c2ccc3c(c2)CCCN3C(=O)C2CCC2)CC1 | inactive |

Reprinted from the entries so far for reference:

| SMILES | Potency |
| --- | --- |
| Cc1ccc(S(=O)(=O)Nc2ccc(NC(=O)c3c(F)c(F)c(F)c(F)c3F)cc2)cc1 | inactive |
| Cc1ccc(NC(=O)Nc2ccc3nc(N4CCN(C)CC4)cc(C)c3c2)cc1C | inconclusive: 16.4 µM [falling, single point] |

— PubChem BioAssay AID504648 (National Center for Advancing Translational Sciences (NCATS), 2011)
